Data: PMC8455663
These are yes or no findings as the source states them, for the method shown. Binding seen in cells or lysates may run through a third protein. Some entries that bind do so weakly or less than the wild type.

By UniProt entry, the sequences of proteins in these tests, tags left out. Where a name states a change or a piece, a line headed by the entry shows the natural chain unless it says otherwise. Chains listed by the source or under a name are the forms on record and can include a tag or linker. Residues count along the entry.
UniProt P10275: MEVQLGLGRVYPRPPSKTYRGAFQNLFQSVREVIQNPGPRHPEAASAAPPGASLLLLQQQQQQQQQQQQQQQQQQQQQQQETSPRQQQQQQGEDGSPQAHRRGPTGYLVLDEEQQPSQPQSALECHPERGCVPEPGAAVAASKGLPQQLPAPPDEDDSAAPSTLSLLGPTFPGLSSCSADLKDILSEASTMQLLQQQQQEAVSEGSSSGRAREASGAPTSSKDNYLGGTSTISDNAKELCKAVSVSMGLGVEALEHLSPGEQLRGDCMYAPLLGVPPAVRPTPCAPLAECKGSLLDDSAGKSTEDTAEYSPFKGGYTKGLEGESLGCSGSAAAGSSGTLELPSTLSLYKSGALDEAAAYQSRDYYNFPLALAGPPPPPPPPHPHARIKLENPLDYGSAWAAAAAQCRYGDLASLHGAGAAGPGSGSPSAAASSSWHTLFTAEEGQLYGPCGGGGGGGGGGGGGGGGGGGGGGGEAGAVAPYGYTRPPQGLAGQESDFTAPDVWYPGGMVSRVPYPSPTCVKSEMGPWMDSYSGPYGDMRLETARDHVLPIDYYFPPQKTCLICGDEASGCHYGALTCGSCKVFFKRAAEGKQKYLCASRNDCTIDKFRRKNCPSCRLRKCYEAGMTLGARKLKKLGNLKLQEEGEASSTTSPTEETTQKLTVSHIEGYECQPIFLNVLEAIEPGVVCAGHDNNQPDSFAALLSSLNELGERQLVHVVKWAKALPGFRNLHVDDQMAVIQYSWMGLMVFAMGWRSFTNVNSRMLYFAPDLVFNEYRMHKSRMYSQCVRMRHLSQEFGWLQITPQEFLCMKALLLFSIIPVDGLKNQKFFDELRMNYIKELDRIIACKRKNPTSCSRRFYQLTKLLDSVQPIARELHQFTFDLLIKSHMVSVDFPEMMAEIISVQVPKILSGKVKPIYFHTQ
Androgen receptor splice variant 7 (human (endogenous in 22Rv1)) (P10275, form named): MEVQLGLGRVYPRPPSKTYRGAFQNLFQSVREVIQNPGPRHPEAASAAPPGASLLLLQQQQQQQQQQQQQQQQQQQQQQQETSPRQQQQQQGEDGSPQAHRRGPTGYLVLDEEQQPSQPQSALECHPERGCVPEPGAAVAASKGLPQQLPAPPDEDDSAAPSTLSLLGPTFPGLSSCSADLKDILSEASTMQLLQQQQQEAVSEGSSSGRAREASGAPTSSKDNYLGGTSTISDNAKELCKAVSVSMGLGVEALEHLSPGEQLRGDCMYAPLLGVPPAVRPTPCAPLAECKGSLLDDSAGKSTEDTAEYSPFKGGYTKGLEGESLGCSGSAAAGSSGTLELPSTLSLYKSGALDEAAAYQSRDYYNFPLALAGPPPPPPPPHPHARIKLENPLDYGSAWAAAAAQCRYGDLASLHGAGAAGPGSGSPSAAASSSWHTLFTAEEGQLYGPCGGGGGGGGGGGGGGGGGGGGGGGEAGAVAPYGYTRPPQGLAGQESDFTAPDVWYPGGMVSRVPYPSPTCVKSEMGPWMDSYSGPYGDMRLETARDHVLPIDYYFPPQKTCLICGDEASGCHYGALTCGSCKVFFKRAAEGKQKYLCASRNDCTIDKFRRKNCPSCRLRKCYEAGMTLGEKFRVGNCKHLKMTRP
UniProt P11021, residues 19-654: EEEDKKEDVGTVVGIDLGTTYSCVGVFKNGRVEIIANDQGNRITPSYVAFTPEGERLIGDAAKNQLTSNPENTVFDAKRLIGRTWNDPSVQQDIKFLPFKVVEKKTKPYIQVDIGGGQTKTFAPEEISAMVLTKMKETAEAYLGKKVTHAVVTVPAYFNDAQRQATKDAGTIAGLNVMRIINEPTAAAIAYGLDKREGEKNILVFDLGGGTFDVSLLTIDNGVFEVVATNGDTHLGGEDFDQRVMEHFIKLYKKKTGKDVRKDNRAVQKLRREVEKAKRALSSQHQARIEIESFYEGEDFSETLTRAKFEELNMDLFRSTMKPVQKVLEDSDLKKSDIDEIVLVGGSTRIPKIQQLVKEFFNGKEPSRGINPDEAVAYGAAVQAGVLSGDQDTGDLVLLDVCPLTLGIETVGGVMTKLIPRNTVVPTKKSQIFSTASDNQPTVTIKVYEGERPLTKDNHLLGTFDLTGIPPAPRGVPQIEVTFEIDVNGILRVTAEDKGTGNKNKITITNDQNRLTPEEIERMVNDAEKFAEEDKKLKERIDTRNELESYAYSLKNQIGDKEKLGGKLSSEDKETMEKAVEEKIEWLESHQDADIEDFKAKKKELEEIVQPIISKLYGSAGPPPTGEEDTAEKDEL

B1: ubiquitin-specific protease 22 (enzyme, UniProt Q9UPT9 1-525)
chain: MVSRPEPEGEAMDAELAVAPPGCSHLGSFKVDNWKQNLRAIYQCFVWSGTAEARKRKAKSCICHVCGVHLNRLHSCLYCVFFGCFTKKHIHEHAKAKRHNLAIDLMYGGIYCFLCQDYIYDKDMEIIAKEEQRKAWKMQGVGEKFSTWEPTKRELELLKHNPKRRKITSNCTIGLRGLINLGNTCFMNCIVQALTHTPLLRDFFLSDRHRCEMQSPSSCLVCEMSSLFQEFYSGHRSPHIPYKLLHLVWTHARHLAGYEQQDAHEFLIAALDVLHRHCKGDDNGKKANNPNHCNCIIDQIFTGGLQSDVTCQVCHGVSTTIDPFWDISLDLPGSSTPFWPLSPGSEGNVVNGESHVSGTTTLTDCLRRFTRPEHLGSSAKIKCSGCHSYQESTKQLTMKKLPIVACFHLKRFEHSAKLRRKITTYVSFPLELDMTPFMASSKESRMNGQYQQPTDSLNNDNKYSLFAVVNHQGTLESGHYTSFIRQHKDQWFKCDDAIITKASIKDVLDSEGYLLFYHKQFLEYE

How the values were obtained:
[1] = target: Androgen receptor splice variant 7 (human (endogenous in 22Rv1)) (UniProt P10275); assay: co-IP; 22Rv1 cells exposed to nobiletin (doses for 12 h; 20 uM for different lengths of time); Dynabeads Co-Immunoprecipitation Kit; precipitating antibody not stated
[2] = target: Androgen receptor splice variant 7 (human (endogenous in 22Rv1)) (UniProt P10275); assay: co-IP; AR-V7 antibody on Dynabeads, 22Rv1 protein extracts, immunoblot for deubiquitinases (screen of 11 DUBs)
[3] = target: full-length androgen receptor (human (endogenous in 22Rv1)) (UniProt P10275); assay: co-IP; 22Rv1 cells exposed to nobiletin (doses for 12 h; 20 uM for different lengths of time); Dynabeads Co-Immunoprecipitation Kit; precipitating antibody not stated
[4] = target: Androgen receptor splice variant 7 (human (endogenous in 22Rv1)) (UniProt P10275); assay: as above; remark: listed apart in the source

Molecule	binding [1]	binding [2]	binding [3]	binding [4]
GRP78 (from UniProt P11021 19-654)	binds	–	–	–
B1	–	binds	binds	binds
